From article PMC11677236
Results are given in words; binding and its absence hold for the method and conditions named. In cells and extracts the contact can be indirect. Some entries that bind do so weakly or less than the wild type.

By UniProt entry, the sequences of proteins in these tests, tags left out.
UniProt Q16665: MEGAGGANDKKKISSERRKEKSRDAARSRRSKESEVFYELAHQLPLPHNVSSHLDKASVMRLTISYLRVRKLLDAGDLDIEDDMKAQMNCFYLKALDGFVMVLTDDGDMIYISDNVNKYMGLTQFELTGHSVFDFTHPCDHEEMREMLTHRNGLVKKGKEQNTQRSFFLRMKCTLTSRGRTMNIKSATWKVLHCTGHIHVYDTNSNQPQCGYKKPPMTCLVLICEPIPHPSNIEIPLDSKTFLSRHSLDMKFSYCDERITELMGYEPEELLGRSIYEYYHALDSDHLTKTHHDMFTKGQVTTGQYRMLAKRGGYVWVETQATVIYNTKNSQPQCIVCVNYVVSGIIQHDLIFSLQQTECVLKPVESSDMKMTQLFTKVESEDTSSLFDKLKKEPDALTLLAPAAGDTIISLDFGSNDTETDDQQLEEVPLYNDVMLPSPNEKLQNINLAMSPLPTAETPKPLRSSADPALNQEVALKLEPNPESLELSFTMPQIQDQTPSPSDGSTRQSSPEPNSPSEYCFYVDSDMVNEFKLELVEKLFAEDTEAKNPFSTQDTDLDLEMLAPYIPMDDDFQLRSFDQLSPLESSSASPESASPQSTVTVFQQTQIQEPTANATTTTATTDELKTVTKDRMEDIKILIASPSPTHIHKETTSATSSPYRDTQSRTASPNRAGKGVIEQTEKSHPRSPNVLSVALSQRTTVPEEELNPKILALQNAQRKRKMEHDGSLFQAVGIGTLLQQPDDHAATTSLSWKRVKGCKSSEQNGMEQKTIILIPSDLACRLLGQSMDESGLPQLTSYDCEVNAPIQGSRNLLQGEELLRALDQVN
UniProt P14618: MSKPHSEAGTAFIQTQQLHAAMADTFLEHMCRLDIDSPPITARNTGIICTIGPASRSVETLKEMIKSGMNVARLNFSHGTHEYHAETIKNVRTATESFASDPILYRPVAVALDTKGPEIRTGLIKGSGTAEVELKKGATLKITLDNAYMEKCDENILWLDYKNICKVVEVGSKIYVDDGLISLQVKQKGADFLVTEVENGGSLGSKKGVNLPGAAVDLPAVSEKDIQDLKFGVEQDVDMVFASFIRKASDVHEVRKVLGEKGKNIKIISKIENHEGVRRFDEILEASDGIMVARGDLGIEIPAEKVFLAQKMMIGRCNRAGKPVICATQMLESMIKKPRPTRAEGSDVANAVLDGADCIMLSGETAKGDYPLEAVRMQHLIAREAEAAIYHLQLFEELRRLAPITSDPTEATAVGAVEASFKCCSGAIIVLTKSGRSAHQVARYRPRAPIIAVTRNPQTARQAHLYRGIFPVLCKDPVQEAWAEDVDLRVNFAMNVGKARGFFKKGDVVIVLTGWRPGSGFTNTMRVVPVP

What was measured:
[1] = molecular target: HIF-1α, exogenous (UniProt Q16665); experiment: co-IP; HEK-293T cells co-transfected with tagged constructs; lysed supernatant incubated with Tag-conjugated beads; western blot; for PKM2/HIF-1α with rising amounts of TIPE
[2] = molecular target: T1, TIPE (TNFAIP8, tumor necrosis factor alpha-induced protein 8), endogenous (human (endogenous in A375 and G361)) (UniProt O95379); experiment: co-IP; IP and western blot of the endogenous proteins in A375 cells
T1 sequence: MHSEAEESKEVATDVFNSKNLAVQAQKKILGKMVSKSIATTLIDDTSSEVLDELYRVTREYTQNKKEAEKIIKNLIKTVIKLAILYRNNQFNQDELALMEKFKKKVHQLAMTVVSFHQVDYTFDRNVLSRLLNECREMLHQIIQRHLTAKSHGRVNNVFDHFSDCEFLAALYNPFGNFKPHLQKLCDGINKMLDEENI

[3] = molecular target: HIF-1α, endogenous (human (endogenous in A375 and G361)) (UniProt Q16665); experiment: proximity ligation; Duolink In Situ PLA kit on endogenous proteins in melanoma cells (G361, A375); for PKM2/HIF-1α with TIPE interference (A375) or TIPE overexpression (G361)
[4] = molecular target: T1, TIPE (TNFAIP8, tumor necrosis factor alpha-induced protein 8), endogenous (human (endogenous in A375 and G361)); experiment: as above

Row | Substance | binding [1] | binding [2] | binding [3] | binding [4]
1 | Flag-tagged PKM2 (from UniProt P14618 1-531) (enzyme) | binds | – | – | –
2 | pyruvate kinase M2 (PKM2), endogenous (from UniProt P14618 1-531) (enzyme) | – | binds | binds | binds
